{"source": "paper PMC12040169", "about": "(PLOS Biology, 2025)", "note": "The other results are listed elsewhere or left out.", "data": [{"system": "T1, CTL2-GFP (C. trachomatis L2/434/Bu, GFP-expressing)", "T1 construct": "L2/434/Bu, GFP-expressing", "parameters": "species or system HeLa; Intracellular C. trachomatis growth in HeLa cells, bulk GFP fluorescence relative to DMSO", "conditions": "bulk GFP, single well; 28.5 h, 10 µM; inhibitor", "units": {"% of control remaining": "%"}, "values": [{"smiles": "COc1ccccc1-c1ccc2c(c1)COC1(CCN(C)CC1)O2", "note": "[CBK061024]", "% of control remaining": 128.457}, {"smiles": "COc1ccc(C)cc1-n1ccc(C(=O)NC2CCSCC2)n1", "note": "[CBK305502]", "% of control remaining": 107.343}, {"smiles": "O=C(c1cn2ccccc2n1)N1CCCN(Cc2cscn2)CC1", "note": "[CBK305352]", "% of control remaining": 109.616}, {"smiles": "COc1cc2c(cc1OC)C1(CCN(C(=O)Nc3ccc(F)cc3F)CC1)NC(=O)C2", "note": "[CBK047264]", "% of control remaining": 100}, {"smiles": "CCCc1ccc(C(=O)N2CCC(C(=O)c3cccnc3)CC2)o1", "note": "[CBK285482]", "% of control remaining": 98.9743}, {"smiles": "COc1ccc(OC(C)C(=O)Nc2cc(OC)c(Cl)cc2OC)cc1", "note": "(stereo not drawn) [CBK263627]", "% of control remaining": 114.957}, {"smiles": "O=C(CSc1nnc(Cc2cccc3ccccc23)n1-c1ccccc1)N1CCc2ccccc21", "note": "[CBK266697]", "% of control remaining": 138.805}, {"smiles": "CC1(C)CC(CN)(c2ccccc2)CCO1", "note": "(stereo not drawn) [CBK025559C]", "% of control remaining": 138.486}, {"smiles": "CC(=O)Nc1ccc(-c2cccc(COC3CCN(C(=O)Cc4cc(F)cc(F)c4F)CC3)c2)cc1", "note": "[CBK149489]", "% of control remaining": 100.546}, {"smiles": "CCN(CC)C(=O)c1ccc(NS(=O)(=O)c2cccc(Cl)c2C)cc1", "note": "[CBK034393]", "% of control remaining": 93.9454}, {"smiles": "Cc1c(C#N)c(=O)ncn1Cc1ccncc1", "note": "[CBK021603]", "% of control remaining": 110.792}, {"smiles": "COc1ccc(Cl)cc1N1CCN(CCN2CCCCC2)CC1", "note": "[CBK126445]", "% of control remaining": 108.44}, {"smiles": "CCn1c(CN[C@@H]2CCC[C@H]2Cc2cc(C)no2)cnc1SC", "note": "[CBK282965]", "% of control remaining": 138.976}, {"smiles": "OC1(c2cccnc2F)CCN(Cc2cc(F)ccc2F)CC1", "note": "[CBK284371]", "% of control remaining": 127.14}, {"smiles": "O=C(CC(CN1CCN(Cc2ccccn2)CC1)C(=O)O)NCc1ccccc1", "note": "(stereo not drawn) [CBK286865]", "% of control remaining": 137.3}, {"smiles": "Cc1cc2c(s1)c1cnn(CCN3CCCC3)c(=O)c1n2C", "note": "[CBK284180]", "% of control remaining": 140.703}, {"smiles": "COc1ccc(C(C)=O)cc1Cc1c(O)nc(SC)nc1O", "note": "[CBK262699]", "% of control remaining": 127.311}, {"smiles": "O=C(O)CCC(=O)N1CCN(c2ncccn2)CC1", "note": "[CBK057422]", "% of control remaining": 114.343}, {"smiles": "CCc1nc2c(OCc3ccccc3)cccn2c1N(C)C(=O)c1ccncc1", "note": "[CBK147876]", "% of control remaining": 100.617}, {"smiles": "COc1ccc(CCNC(=O)N(C)C2CCN(C)C2)cc1OC", "note": "(stereo not drawn) [CBK156007]", "% of control remaining": 113.107}, {"smiles": "O=C(NCCNc1ccc(Cl)cc1[N+](=O)[O-])c1c(F)cccc1F", "note": "[CBK269643]", "% of control remaining": 104.015}, {"smiles": "CC(C)(CN)CN(Cc1ccccc1Br)C(=O)NC(c1ccccc1)c1ccccc1", "note": "[CBK002488C]", "% of control remaining": 48.9418}, {"smiles": "O=C(NC(c1ccccc1)c1ccccn1)C1CCN(C(=O)Oc2ccccc2)CC1", "note": "(stereo not drawn) [CBK060105]", "% of control remaining": 111.209}, {"smiles": "CSc1ncc(Cl)c(C(=O)Nc2sc3c(c2C(=O)NCc2ccco2)CCC3)n1", "note": "[CBK268991]", "% of control remaining": 154.669}, {"smiles": "Cc1n[nH]c(C)c1CNC(=O)c1[nH]c2c(Cl)cccc2c1C", "note": "[CBK282534]", "% of control remaining": 108.172}, {"smiles": "CN(c1cncc(Cl)n1)C1CCN(Cc2ccccc2)CC1", "note": "[CBK012767F]", "% of control remaining": 149.754}, {"smiles": "O=C1Nc2c(cnn2-c2ccc(Cl)cc2)C2=NCCN12", "note": "[CBK284341]", "% of control remaining": 69.8867}, {"smiles": "CCn1c(C)nc2cc(S(N)(=O)=O)ccc21", "note": "[CBK260950]", "% of control remaining": 108.903}, {"smiles": "CCNc1nc(=S)[nH]c2sc3c(c12)CCC(C)C3", "note": "(stereo not drawn) [CBK086242]", "% of control remaining": 169.163}, {"smiles": "Cc1ccc([N+](=O)[O-])cc1NC(=O)C1CCCN1S(=O)(=O)c1ccc(Cl)cc1", "note": "(stereo not drawn) [CBK033769]", "% of control remaining": 112.937}, {"smiles": "CCOc1ccc(-c2ccnc(N3C[C@@H](C)O[C@@H](C)C3)n2)cc1C(=O)O", "note": "[CBK306584]", "% of control remaining": 152.221}, {"smiles": "CCOc1ccc(OC(=O)C2CCN(C(=O)CC(C)C)CC2)cc1", "note": "[CBK154228]", "% of control remaining": 93.0002}, {"smiles": "CCCN1CCN(c2ncnc3scc(C4COc5ccccc5O4)c23)CC1", "note": "(stereo not drawn) [CBK266590]", "% of control remaining": 146.694}, {"smiles": "CCN(CC(=O)NCc1cccnc1)S(=O)(=O)c1ccc2ccccc2c1", "note": "[CBK300514]", "% of control remaining": 105.132}, {"smiles": "C=CCNc1nc(N)c(/C(N)=N/C#N)s1", "note": "[CBK019028]", "% of control remaining": 89.3885}, {"smiles": "CCn1cc(CN(CCO)C(=O)c2cccc(C#N)c2C)cn1", "note": "[CBK304196]", "% of control remaining": 97.2343}, {"smiles": "Cc1cc(NS(=O)(=O)c2ccc(NC(=O)c3cc(-c4ccc(C)o4)nc4ccccc34)cc2)nc(C)n1", "note": "[CBK262628]", "% of control remaining": 117.641}, {"smiles": "O=C1O[C@@H](CCl)CN1c1ccc(N2CCOCC2)c(F)c1", "note": "[CBK017613]", "% of control remaining": 59.9241}, {"smiles": "O=[N+]([O-])c1cc(S(=O)(=O)Nc2cccc(-c3cnco3)c2)ccc1Cl", "note": "[CBK067125]", "% of control remaining": 52.9834}, {"smiles": "COc1ccc(S(=O)(=O)Nc2ccncc2)cc1N(C)S(=O)(=O)c1ccccc1", "note": "[CBK267179]", "% of control remaining": 133.417}, {"smiles": "c1ccc(CSc2ccc(-c3ccncc3)nn2)nc1", "note": "[CBK287638]", "% of control remaining": 158.308}, {"smiles": "CN(C)CCOc1ccc2c(c1)OC1(CCN(C(=O)c3ccc4sc(N)nc4c3)CC1)CC2=O", "note": "[CBK169380]", "% of control remaining": 119.327}, {"smiles": "CC(C)C(=O)NC(c1ccc(C(C)C)cc1)c1cc([N+](=O)[O-])c2cccnc2c1O", "note": "(stereo not drawn) [CBK265303]", "% of control remaining": 119.503}, {"smiles": "CCN(CC)C(=O)CN1CCN(c2nccnc2OCC2COc3ccccc3O2)CC1", "note": "(stereo not drawn) [CBK082803T]", "% of control remaining": 56.0152}, {"smiles": "Cc1cccc(CN(CC(=O)Nc2ccc(F)cc2F)S(=O)(=O)c2ccc(Cl)cc2)c1", "note": "[CBK265164]", "% of control remaining": 124.924}, {"smiles": "O=C(CSc1ncccc1C(=O)O)Nc1ccc(Oc2ccccc2)cc1", "note": "[CBK266340]", "% of control remaining": 115.833}, {"smiles": "CN1CCN(CC(O)COc2ccccc2)CC1", "note": "(stereo not drawn) [CBK278191G]", "% of control remaining": 125.912}, {"smiles": "CC(C)CC(NC(=O)Cc1cccc(O)c1)c1nnc2n1CCNCC2", "note": "(stereo not drawn) [CBK307183]", "% of control remaining": 135.16}, {"smiles": "COc1ccc(C)cc1-n1ccc(C(=O)NC(C)(C)C)n1", "note": "[CBK306315]", "% of control remaining": 157.118}, {"smiles": "Cc1cc(C)n(CCC(=O)N2C[C@@H]3CCCCN(CC4CC4)[C@@H]3C2)n1", "note": "[CBK285505]", "% of control remaining": 115.072}, {"smiles": "CN(C(=O)CCn1c(=O)oc2cc(Cl)ccc21)C1CCNC1", "note": "(stereo not drawn) [CBK304310C]", "% of control remaining": 126.225}, {"smiles": "COc1ccc2c(c1)C(C[C@H]1CN(C(=O)C3CC3)CC[C@H]1CC(=O)O)=NCC2", "note": "[CBK289157]", "% of control remaining": 133.031}, {"smiles": "Cc1ccc(CN2CCCN(C(=O)Cn3nc4ccccn4c3=O)CC2)cc1", "note": "[CBK297768]", "% of control remaining": 164.867}, {"smiles": "CCn1cc(C(=O)O)c(=O)c2cc(F)c(N3CCN(C(=S)Nc4cc(OC)ccc4OC)CC3)cc21", "note": "[CBK265831]", "% of control remaining": 124.632}, {"smiles": "CCCCC(O)(Cc1onc(-c2ccccc2)c1C(=O)N(C)C)c1ccc(CN2CCCC2)cc1", "note": "(stereo not drawn) [CBK034415T]", "% of control remaining": 72.5135}, {"smiles": "CN(C)CCNC(=O)c1cccc(-c2cnc3[nH]c(=O)n(C4CCCCC4)c3n2)c1", "note": "[CBK064191]", "% of control remaining": 173.238}, {"smiles": "Cc1ccc(OCC(=O)Nc2cccc(C(=O)O)c2)cc1", "note": "[CBK287023]", "% of control remaining": 111.237}, {"smiles": "Cc1nc2c(c(=O)[nH]1)CC[C@@H]1CN(C(=O)Cc3cccc(F)c3)C[C@H]21", "note": "[CBK284413]", "% of control remaining": 110.453}, {"smiles": "COC(=O)c1ccc(-c2cn3ccnc3c(NCc3ccncc3)n2)cc1", "note": "[CBK066734]", "% of control remaining": 128.75}, {"smiles": "COc1cnc(/C=C\\c2ccccc2)c(NC(=O)c2ccco2)n1", "note": "[CBK145361]", "% of control remaining": 171.913}, {"smiles": "Cc1ccc2c(c1)nc(-c1ccc(O)cc1)n2Cc1ccc(O)cc1", "note": "[CBK291226]", "% of control remaining": 74.2613}, {"smiles": "O=C(Cc1nnn[nH]1)Nc1cccc(-c2nn[nH]n2)c1", "note": "[CBK160122]", "% of control remaining": 113.307}, {"smiles": "Cc1nnc(SCc2ccc(CSc3nnc(C)c(=O)[nH]3)cc2)[nH]c1=O", "note": "[CBK268085]", "% of control remaining": 127.935}, {"smiles": "COC(=O)CCC(=O)Nc1cccc([N+](=O)[O-])c1", "note": "[CBK261345]", "% of control remaining": 111.287}, {"smiles": "COCCNC(=O)N1CCN(CCc2ccccc2)CC1", "note": "[CBK158909]", "% of control remaining": 186.598}, {"smiles": "O=C(Cn1c(=O)cc(O)c2ccccc21)Nc1cccc(F)c1", "note": "[CBK291242]", "% of control remaining": 128.67}, {"smiles": "CCc1nc2ccc(C(=O)N3CCN(S(=O)(=O)CC)CC3)cn2c1N(C)CC", "note": "[CBK145520]", "% of control remaining": 113.662}, {"smiles": "Clc1cc2nc(OC3CCCNC3)c(N3CCCC3)nc2cc1Cl", "note": "(stereo not drawn) [CBK113454]", "% of control remaining": 108.682}, {"smiles": "N#CCCCN1CCC(Oc2nccnc2OCCN2C(=O)CCC2=O)CC1", "note": "[CBK084349]", "% of control remaining": 118.981}, {"smiles": "COc1ccc(Cl)cc1N1CCN(CC(=O)Nc2ccc(F)c(Cl)c2)CC1", "note": "[CBK126417]", "% of control remaining": 95.1895}, {"smiles": "CCSc1nc(=O)c2c(n1C)NC(=O)CC2c1ccccc1", "note": "(stereo not drawn) [CBK307541]", "% of control remaining": 89.5352}, {"smiles": "O=c1c2c([nH]c3nc(NCc4ccc(OCc5ccccc5)cc4)nn13)CCC2", "note": "[CBK268044]", "% of control remaining": 124.588}, {"smiles": "CCNC(=O)N[C@H]1CO[C@H]2[C@@H]1OC[C@@H]2Nc1nccc(-c2ccc(OC)cc2)n1", "note": "[CBK289528]", "% of control remaining": 116.736}, {"smiles": "CCCCC(=O)/N=C(\\N)Nc1nc2ccccc2o1", "note": "[CBK287937]", "% of control remaining": 14.9301}, {"smiles": "Cc1ccc(Oc2ccc([N+](=O)[O-])cc2F)c(Br)c1", "note": "[CBK002821]", "% of control remaining": 114.798}, {"smiles": "Cc1cc(C(F)(F)F)n(CC(C)CNC(=O)Cc2csc(C)n2)n1", "note": "(stereo not drawn) [CBK306733]", "% of control remaining": 113.877}, {"smiles": "C/C(=N\\N=C1\\N=C(O)C(CC(=O)O)S1)c1ccco1", "note": "(stereo not drawn) [CBK021973]", "% of control remaining": 130.358}, {"smiles": "Cc1cc(F)ccc1OC1(C(=O)O)CCN(Cc2ccoc2)CC1", "note": "[CBK307187]", "% of control remaining": 101.768}]}]}
